Test results from patent US20110046056A1 (priority 2007, published 2011).
Plain letter strings leave the end groups untold.

Assay: general procedure: Fmoc solid-phase peptide synthesis; Fmoc-Linker AM-PS resin, 1% cross-linked (Biosearch Technologies); PEG-PS resin with modified Rink linker; HBTU/DIEA
Settings: whole synthesis

Substance | crude yield [%] | isolated yield [%] | crude yield (hydrocarbon staple) [%] | isolated yield (hydrocarbon staple) [%]
PVLDEFREKLNEELEALKQKLK | 80 | 20. | – | –
PVLDEFREKLNER5HLEAR5HKQKLK | – | – | 60 | 23
PVLDES7HREKLNES7HLEALKQKLK | 73 | 22 | – | –
